Assay results published in US11304955B2, “Small-molecule povidone analogs in coamorphous pharmaceutical phases” (ISP INVESTMENTS LLC, priority 2017, dated 2022).
Some of these results come from one statement about several compounds together.

Format: physicochemical
Conditions: coformer ground 1:1 molar with ROY (PVP K12, PVCap 1:1 by mass; ROY control without coformer), melted, cooled to room temperature overnight
Source text: Compounds 3-8 and VCap were all ground using a mortar and pestle in a 1:1 molar ratio with ROY. Comparative experiments were also undertaken in the same way with PVP (K12) (1) and PVCap (2) in a 1:1 ratio by mass with ROY. The samples were then placed on a microscope slide and covered with a thin, glass cover slip and heated using a hot stage optical microscope until all material had melted. The samples were then removed from the hot stage and allowed to cool to room temperature overnight. The cooled samples were examined under a microscope fitted with cross polarizing filters and assessed for crystallinity on the basis of birefringence.
A Linkam LTS420 heating stage attached to a Olympus XC50 microscope was used to heat the samples. Samples were placed on a glass microscope slide with a thin glass cover slide. For the amorphous material screening compounds were ground together in various drug to coformer ratio using 0.05 g of coformer in each case and heated at 30° C. min^−1 until the all of the sample had melted. Samples were then removed from the hot stage and allowed to cool. BisVCap was ground in 1:1 molar mixture with carbamazepine, carisoprodol, isoniazid and ROY. The carbamazepine/bisVCap sample was heated from room temperature to 170° C. at a rate of 10° C. min^−1, cooled at ° C. min^−1 to −40° C., then heated at 10° C. min^−1 to 165° C. The carisoprodol/bisVCap sample was heated from room temperature to 150° C. at a rate of 10° C. min^−1, cooled at ° C. min^−1 to −75° C., then heated at 10° C. min^−1 to 145° C. min^−1. The isoniazid/bisVCap sample was heated from room temperature to 175° C. at a rate of 10° C. min^−1, cooled at ° C. min^−1 to −100° C., then heated at 10° C. min^−1 to 125° C. min^−1. The ROY/bisVCap sample was heated from room temperature to 150° C. at a rate of 10° C. min^−1, cooled at ° C. min^−1 to −90° C., then heated at 10° C. min^−1 to 155° C. min^−1.

SMILES | crystallinity of ROY sample on the basis of birefringence
CC(/C=C/N1CCCC1=O)N1CCCC1=O (stereo not shown) [Compound 5] | ultimately ineffective at coamorphous phase formation
CC(CCN1CCCCCC1=O)N1CCCCCC1=O (stereo not shown) [Compound 4] | ultimately ineffective at coamorphous phase formation
CC(OCCN1CCCC1=O)N1CCCCCC1=O (stereo not shown) [Compound 8] | ultimately ineffective at coamorphous phase formation
CC(CCN1CCCC1=O)N1CCCC1=O (stereo not shown) [Compound 6] | ultimately ineffective at coamorphous phase formation
